No constants are given. Whether binding was seen depends on the method and setting. Binding seen in cells or lysates may run through a third protein. Binding can be weak; no strength is given. Sequences can lack the tags named with a protein.
Target: GST-SsaE fusion protein (Salmonella enterica serovar Typhimurium)
Test: pull-down; GST-SsaE immobilised on glutathione-Sepharose, incubated at 4°C for 2 h with E. coli lysate containing SseB-FLAG; washed five times with TBS pH 7.6; immunoblot with anti-GST and anti-FLAG; only the target purified

B1: SseB-FLAG fusion protein (protein, UniProt Q7BVH7 1-196)
chain: MSSGNILWGSQNPIVFKNSFGVSNADTGSQDDLSQQNPFAEGYGVLLILLMVIQAIANNKFIEVQKNAERARNTQEKSNEMDEVIAKAAKGDAKTKEEVPEDVIKYMRDNGILIDGMTIDDYMAKYGDHGKLDKGGLQAIKAALDNDANRNTDLMSQGQITIQKMSQELNAVLTQLTGLISKWGEISSMIAQKTYS
- binding: binds

Source: article PMC3983159
